This note sets out measurements from paper PMC6368300.

This assay concerns the target T1, ΔChd7(787–2134) (human) (UniProt Q9P2D1).
T1 sequence: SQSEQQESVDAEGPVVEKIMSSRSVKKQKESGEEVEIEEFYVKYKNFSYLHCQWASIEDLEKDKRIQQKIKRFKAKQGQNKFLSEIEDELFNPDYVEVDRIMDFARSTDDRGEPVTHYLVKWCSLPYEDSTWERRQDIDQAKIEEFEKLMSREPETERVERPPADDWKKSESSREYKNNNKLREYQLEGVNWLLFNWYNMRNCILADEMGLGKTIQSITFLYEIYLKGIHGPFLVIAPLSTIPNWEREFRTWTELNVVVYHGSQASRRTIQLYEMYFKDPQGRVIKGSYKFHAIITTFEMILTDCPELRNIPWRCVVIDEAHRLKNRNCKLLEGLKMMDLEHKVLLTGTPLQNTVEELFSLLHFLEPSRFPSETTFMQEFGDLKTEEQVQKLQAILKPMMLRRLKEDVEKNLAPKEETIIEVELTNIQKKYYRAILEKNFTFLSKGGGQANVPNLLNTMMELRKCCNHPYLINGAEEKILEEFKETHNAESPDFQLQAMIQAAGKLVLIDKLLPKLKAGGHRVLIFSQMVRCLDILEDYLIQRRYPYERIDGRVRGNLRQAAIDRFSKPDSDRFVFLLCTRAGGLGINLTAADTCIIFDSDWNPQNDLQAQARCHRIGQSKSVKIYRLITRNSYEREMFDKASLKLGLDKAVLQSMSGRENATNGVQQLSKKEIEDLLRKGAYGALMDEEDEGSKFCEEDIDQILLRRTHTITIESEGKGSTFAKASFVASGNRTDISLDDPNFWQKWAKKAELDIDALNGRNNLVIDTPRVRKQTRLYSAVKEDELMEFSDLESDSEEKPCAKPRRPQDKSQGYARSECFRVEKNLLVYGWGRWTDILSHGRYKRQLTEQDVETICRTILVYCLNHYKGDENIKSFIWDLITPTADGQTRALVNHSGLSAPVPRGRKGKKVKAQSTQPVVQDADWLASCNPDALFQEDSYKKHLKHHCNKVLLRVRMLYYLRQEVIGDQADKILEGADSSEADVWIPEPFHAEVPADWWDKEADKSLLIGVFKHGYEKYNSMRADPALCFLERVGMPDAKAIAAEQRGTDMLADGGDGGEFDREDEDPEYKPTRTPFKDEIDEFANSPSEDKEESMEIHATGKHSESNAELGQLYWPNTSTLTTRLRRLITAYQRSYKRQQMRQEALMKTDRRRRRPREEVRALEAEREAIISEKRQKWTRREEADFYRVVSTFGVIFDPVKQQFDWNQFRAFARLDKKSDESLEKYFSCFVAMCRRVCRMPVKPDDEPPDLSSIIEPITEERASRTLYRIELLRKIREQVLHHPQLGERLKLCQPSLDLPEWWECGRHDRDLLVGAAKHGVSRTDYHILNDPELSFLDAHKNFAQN
Description: native gel or EMSA; native PAGE binding experiments of PKM2 and ΔChd7, with increasing molar concentration of PKM2 or of Chd7 (S1 Fig); both purified. Background: A gel shift assay detects complexes by their altered migration in electrophoresis.

Results are given in words; binding and its absence hold for the method and conditions named.

Take “Pyruvate Kinase M2 (from UniProt P14618 1-531) (enzyme)”: the binding entry is on record as “no binding”.
